Data as given in PMC5752956.

Molecular target: EGFP-STΔ95–111 (Merkel cell polyomavirus)
Test: co-IP; lysates of HEK-293 cells transfected for 24 h with EGFP-tagged ST constructs incubated with GFP-TRAP agarose beads; pulldowns immunoblotted with PP2A Aβ- and PP4C-specific antibodies (endogenous proteins)

B1: catalytic subunit of protein phosphatase 4 (PP4C) (enzyme, UniProt P60510 1-307)
chain: MAEISDLDRQIEQLRRCELIKESEVKALCAKAREILVEESNVQRVDSPVTVCGDIHGQFYDLKELFRVGGDVPETNYLFMGDFVDRGFYSVETFLLLLALKVRYPDRITLIRGNHESRQITQVYGFYDECLRKYGSVTVWRYCTEIFDYLSLSAIIDGKIFCVHGGLSPSIQTLDQIRTIDRKQEVPHDGPMCDLLWSDPEDTTGWGVSPRGAGYLFGSDVVAQFNAANDIDMICRAHQLVMEGYKWHFNETVLTVWSAPNYCYRCGNVAAILELDEHLQKDFIIFEAAPQETRGIPSKKPVADYFL
B1 was tested, and the binding was “no binding”.

No constants are given. Whether binding was seen depends on the method and setting. Binding seen in cells or lysates may run through a third protein.
